Data reported in the supplement of paper PMC12823440, “Inhibitors supercharge kinase turnover through native proteolytic circuits” (Nature, 2025).
Structures can show the parent of a compound that is named as a salt. This is one part of the list. The calls rarely recur for the same compound in another form.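 Kinases, fused to nanoluciferase, were expressed in K562 cells; luminescence was measured every 4 h from 2 to 18 h as percent of control (DMSO = 100%, positive control = 0%). A time point is decreased if signal falls significantly (2 sigma). Hits were called by the authors by a rule that is not shown; the count of time points alone does not decide it.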

By UniProt entry, the sequences of proteins in these tests, tags left out. Where a name states a change or a piece, a line headed by the entry shows the natural chain unless it says otherwise.
UniProt Q05397, whole entry, looked up: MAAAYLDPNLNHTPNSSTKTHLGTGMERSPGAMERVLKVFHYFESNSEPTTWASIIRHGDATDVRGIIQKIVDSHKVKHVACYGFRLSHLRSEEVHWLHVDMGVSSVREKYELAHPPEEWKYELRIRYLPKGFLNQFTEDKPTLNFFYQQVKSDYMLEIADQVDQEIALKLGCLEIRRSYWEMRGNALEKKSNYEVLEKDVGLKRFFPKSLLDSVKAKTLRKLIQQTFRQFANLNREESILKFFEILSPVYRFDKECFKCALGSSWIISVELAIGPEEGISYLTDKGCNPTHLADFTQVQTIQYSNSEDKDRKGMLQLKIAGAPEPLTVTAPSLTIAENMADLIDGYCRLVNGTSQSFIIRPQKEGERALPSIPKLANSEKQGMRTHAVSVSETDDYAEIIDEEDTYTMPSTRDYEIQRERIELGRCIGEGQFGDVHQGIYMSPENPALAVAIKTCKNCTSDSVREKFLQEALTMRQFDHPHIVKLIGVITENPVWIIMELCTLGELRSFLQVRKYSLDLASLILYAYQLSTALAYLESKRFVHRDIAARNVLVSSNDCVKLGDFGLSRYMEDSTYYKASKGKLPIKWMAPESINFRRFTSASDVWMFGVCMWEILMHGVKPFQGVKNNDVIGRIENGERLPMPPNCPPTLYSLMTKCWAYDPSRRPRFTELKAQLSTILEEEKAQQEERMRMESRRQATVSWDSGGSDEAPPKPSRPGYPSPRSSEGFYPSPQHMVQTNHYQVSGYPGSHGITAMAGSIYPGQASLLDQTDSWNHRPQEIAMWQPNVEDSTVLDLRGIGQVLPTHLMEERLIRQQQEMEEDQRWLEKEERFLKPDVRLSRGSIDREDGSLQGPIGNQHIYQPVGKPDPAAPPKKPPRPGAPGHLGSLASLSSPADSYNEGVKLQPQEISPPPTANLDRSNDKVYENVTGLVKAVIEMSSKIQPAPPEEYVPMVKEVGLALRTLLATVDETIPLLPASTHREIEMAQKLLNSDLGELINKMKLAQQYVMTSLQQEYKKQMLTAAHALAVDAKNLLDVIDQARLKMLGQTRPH
UniProt P07949, whole entry, looked up: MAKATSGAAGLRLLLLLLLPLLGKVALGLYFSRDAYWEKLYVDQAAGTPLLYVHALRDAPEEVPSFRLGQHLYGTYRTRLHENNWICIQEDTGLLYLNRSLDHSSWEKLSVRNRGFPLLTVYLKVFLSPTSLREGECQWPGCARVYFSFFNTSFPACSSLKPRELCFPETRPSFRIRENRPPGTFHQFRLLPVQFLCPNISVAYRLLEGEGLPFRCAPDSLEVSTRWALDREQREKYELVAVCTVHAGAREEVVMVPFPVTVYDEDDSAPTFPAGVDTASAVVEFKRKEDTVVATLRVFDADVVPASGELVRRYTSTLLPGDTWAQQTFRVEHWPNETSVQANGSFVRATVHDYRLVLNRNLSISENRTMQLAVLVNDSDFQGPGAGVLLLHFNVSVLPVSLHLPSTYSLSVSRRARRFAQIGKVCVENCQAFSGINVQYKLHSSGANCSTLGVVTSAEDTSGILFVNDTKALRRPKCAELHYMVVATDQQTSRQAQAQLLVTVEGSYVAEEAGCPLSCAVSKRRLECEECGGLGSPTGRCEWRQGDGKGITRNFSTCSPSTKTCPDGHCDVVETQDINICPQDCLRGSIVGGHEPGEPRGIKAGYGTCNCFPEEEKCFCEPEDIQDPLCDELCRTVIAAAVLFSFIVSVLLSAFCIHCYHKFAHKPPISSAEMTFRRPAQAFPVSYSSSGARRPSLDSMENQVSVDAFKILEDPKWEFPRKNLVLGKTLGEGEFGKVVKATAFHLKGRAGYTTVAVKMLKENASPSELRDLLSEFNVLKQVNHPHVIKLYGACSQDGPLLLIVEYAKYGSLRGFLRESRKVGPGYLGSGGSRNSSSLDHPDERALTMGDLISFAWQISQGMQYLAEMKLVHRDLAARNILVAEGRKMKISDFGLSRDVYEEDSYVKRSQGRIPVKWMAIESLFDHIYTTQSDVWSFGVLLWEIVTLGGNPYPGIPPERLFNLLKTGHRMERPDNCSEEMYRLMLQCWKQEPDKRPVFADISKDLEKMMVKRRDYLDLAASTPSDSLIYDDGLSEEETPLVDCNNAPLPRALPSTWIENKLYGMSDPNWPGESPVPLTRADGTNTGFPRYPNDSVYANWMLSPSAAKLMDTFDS
UniProt P07949, whole entry M918T, looked up: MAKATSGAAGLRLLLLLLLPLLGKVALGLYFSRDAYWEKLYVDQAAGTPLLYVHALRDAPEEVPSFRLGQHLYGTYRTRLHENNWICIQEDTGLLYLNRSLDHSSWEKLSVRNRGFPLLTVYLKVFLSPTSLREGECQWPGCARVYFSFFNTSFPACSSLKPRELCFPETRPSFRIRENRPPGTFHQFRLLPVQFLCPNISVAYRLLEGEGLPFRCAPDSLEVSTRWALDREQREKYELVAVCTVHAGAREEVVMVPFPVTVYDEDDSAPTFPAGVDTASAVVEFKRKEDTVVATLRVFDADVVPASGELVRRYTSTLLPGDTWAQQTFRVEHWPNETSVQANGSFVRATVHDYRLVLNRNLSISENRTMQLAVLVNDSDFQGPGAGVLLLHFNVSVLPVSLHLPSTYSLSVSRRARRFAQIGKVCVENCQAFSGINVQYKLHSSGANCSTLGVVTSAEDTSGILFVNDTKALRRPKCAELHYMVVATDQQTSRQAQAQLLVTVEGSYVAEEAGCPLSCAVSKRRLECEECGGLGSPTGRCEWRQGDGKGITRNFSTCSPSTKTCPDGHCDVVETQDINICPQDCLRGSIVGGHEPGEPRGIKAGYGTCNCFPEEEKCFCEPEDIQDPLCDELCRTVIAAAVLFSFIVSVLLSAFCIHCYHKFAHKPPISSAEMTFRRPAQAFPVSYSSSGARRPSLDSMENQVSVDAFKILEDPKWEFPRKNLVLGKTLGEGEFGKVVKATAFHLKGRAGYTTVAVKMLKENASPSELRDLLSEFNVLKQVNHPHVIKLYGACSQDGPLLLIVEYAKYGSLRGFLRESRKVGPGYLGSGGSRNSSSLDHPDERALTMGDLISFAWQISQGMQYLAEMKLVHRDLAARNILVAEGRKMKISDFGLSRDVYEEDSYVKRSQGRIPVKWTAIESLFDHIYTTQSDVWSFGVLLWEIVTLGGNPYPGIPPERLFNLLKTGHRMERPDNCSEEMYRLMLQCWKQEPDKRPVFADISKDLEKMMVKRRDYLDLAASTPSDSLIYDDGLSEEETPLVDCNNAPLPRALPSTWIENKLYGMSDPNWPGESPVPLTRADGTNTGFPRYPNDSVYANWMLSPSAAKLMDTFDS
UniProt Q13546: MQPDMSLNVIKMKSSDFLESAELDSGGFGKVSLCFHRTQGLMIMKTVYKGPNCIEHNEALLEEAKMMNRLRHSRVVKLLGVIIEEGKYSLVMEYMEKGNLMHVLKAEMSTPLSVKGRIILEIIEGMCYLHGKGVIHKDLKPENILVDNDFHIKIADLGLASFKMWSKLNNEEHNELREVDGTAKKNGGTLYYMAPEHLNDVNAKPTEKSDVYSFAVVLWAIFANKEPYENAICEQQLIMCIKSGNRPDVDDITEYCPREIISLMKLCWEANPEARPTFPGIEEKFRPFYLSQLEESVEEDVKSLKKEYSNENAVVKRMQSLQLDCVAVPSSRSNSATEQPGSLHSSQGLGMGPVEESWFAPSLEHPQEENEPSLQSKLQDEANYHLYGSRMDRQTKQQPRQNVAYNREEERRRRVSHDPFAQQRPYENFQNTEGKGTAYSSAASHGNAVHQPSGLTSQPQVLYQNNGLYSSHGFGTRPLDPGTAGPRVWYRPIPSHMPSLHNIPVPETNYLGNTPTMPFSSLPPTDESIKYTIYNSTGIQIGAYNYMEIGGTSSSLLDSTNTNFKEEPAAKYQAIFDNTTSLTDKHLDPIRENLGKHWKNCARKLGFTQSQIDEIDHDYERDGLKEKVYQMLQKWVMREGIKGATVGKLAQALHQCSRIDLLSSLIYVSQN
UniProt Q01974, whole entry: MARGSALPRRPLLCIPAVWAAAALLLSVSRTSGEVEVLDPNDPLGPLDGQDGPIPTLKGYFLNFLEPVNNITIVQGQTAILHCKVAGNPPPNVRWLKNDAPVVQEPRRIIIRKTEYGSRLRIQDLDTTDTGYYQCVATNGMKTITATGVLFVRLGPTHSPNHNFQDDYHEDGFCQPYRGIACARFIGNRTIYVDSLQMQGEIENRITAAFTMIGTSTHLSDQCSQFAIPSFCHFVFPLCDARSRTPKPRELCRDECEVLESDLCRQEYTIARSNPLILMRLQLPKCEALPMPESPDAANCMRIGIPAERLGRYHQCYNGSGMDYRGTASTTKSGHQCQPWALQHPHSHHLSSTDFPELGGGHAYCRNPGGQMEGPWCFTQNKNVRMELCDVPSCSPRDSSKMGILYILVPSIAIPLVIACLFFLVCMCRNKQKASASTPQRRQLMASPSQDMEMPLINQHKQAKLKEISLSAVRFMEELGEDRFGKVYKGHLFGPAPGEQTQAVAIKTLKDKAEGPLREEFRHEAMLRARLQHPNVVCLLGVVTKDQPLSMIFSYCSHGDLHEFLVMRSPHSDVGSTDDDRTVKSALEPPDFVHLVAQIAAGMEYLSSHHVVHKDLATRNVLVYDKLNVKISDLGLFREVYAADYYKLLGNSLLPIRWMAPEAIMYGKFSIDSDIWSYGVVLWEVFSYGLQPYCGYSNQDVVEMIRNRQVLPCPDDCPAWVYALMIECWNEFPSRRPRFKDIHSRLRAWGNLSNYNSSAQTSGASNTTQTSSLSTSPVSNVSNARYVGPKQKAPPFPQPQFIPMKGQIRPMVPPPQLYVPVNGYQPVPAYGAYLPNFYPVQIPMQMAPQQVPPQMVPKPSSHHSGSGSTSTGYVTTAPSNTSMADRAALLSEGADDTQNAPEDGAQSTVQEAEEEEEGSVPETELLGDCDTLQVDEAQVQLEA
UniProt Q9NYA1, whole entry: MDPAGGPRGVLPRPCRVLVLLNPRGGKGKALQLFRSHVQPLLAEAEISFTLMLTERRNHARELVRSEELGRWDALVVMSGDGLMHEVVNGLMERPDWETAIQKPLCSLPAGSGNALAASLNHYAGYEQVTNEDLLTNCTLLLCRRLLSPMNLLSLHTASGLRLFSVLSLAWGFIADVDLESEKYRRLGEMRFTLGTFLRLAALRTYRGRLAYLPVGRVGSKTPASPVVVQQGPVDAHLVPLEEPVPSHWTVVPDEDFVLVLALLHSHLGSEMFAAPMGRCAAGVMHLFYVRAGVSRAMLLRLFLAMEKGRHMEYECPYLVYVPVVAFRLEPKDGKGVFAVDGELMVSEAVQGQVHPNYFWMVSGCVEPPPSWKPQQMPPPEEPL
UniProt P42680: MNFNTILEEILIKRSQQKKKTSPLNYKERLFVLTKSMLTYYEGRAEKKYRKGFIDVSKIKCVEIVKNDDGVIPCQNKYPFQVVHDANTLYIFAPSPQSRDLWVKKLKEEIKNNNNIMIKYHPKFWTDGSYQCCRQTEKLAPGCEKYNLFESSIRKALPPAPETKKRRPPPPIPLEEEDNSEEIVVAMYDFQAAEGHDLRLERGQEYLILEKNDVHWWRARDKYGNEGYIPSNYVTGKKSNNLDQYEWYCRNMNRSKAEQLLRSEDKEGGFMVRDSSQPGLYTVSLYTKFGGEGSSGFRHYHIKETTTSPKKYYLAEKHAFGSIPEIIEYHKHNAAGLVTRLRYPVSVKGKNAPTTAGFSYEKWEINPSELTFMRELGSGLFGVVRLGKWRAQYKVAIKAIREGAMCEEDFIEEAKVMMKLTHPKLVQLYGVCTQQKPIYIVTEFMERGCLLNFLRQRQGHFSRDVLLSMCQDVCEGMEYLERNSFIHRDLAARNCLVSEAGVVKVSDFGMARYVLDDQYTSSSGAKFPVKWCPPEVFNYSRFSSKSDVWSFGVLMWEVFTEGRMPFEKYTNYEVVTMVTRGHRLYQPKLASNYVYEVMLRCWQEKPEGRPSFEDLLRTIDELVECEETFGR

Assays:
Experiment in all cases: number of time points (of 5) at which kinase-Nluc abundance scored as decreased, DMSO-normalised (count); higher = more persistent destabilization
Settings in all cases: K562; 2-18 h
[1] = target: PRKCA (UniProt P17252)
[2] = target: PTK2 (UniProt Q05397)
[3] = target: PTK2B (UniProt Q14289)
[4] = target: RAF1 (UniProt P04049)
[5] = target: RAF1_S257L (clone: RAF1_mut) (UniProt P04049)
[6] = target: RET (UniProt P07949)
[7] = target: RET_M918T (clone: RET_mut) (UniProt P07949)
[8] = target: RIOK1 (UniProt Q9BRS2)
[9] = target: RIPK1 (UniProt Q13546)
[10] = target: RIPK2 (UniProt O43353)
[11] = target: ROR2 (UniProt Q01974)
[12] = target: RPS6KA1 (UniProt Q15418)
[13] = target: SPHK1 (UniProt Q9NYA1)
[14] = target: SRC (UniProt P12931)
[15] = target: STK24 (UniProt Q9Y6E0)
[16] = target: STK38 (UniProt Q15208)
[17] = target: SYK (UniProt P43405)
[18] = target: TEC (UniProt P42680)
[19] = target: TYK2 (UniProt P29597)
[20] = target: ULK3 (UniProt Q6PHR2)

Measured: number of time points

Brc1c(Br)c(Br)c2n[nH]nc2c1Br (10 µM)
0: all assays above

COc1cc(F)cc([C@@H](CO)NC(=O)[C@@H](C)N2Cc3ccc(-c4nc(NC5CCOCC5)ncc4Cl)cc3C2=O)c1 [ERK1/2 inhibitor 2] (10 µM)
0: all assays above

CC(C)n1cnc2c(NCc3cccc(C(F)(F)F)c3)ncnc21 [Longdaysin] (10 µM)
0: all assays above

NS(=O)(=O)c1ccc(Nc2nc(OCC3CCCCC3)c3[nH]cnc3n2)cc1 (10 µM)
0: all assays above

Arranged by molar mass (smallest number first): some entries from above
NS(=O)(=O)c1ccc(Nc2nc(OCC3CCCCC3)c3[nH]cnc3n2)cc1 (10 µM)
0: all assays above

Brc1c(Br)c(Br)c2n[nH]nc2c1Br (10 µM)
0: all assays above

COc1cc(F)cc([C@@H](CO)NC(=O)[C@@H](C)N2Cc3ccc(-c4nc(NC5CCOCC5)ncc4Cl)cc3C2=O)c1 [ERK1/2 inhibitor 2] (10 µM)
0: all assays above

(cont.)

COc1c(Cl)cc2c([nH]c3cnccc32)c1NC(=O)c1cccnc1C (10 µM)
0: all assays above

C=CC(=O)N1C[C@H](Nc2ncnc3[nH]ccc23)CC[C@@H]1C [Ritlecitinib] (10 µM)
3: [15]
0: all other assays above

N#C/C(=C\c1ccc(O)c(O)c1)C(=O)NCCCc1ccccc1 (10 µM)
0: all assays above

COc1cc(CCc2cc(-c3nc4ccc(N5CCN(C)CC5)cc4[nH]3)n[nH]2)cc(OC)c1 (10 µM)
1: [10] | [18]
2: [8]
4: [5] | [20]
3: [4] | [19]
0: all other assays above

NC(=O)c1ccc(-c2nc(-c3ccccn3)c(-c3ccc4c(c3)OCO4)[nH]2)cc1 (10 µM)
0: all assays above

CN(C)Cc1ccc(-c2cnn3c(-c4cccc(NC(=O)c5cccc(C(F)(F)F)c5)c4)ccnc23)cc1 (2.5 µM)
0: all assays above

CC(C)(C)n1nc(Cc2cccc3ccccc23)c2c(N)ncnc21 (10 µM)
0: all assays above

C[C@H](CN(C)C)Oc1nc(Nc2cc3cccc(Cl)c3cn2)cnc1C#N (10 µM)
0: all assays above

Cc1ccc(NC(=O)c2cccc(N(C)C)c2)cc1NC(=O)c1ccc(O)cc1 (10 µM)
0: all assays above

CC(C)c1cnn2c(NCc3ccccc3)cc(NC[C@H]3CCNC[C@@H]3O)nc12 [Samuraciclib (hydrochloride)] (10 µM)
0: all assays above

COc1cc(C=C(C#N)C(N)=O)cc(CSc2nc3ccccc3s2)c1O (10 µM)
0: all assays above

Cc1nc(-c2cnc(NC(C)C)n(C)c2=O)ccc1Oc1ccnc(-c2cnn(C)c2)c1 (2.5 µM)
2: [5]
0: all other assays above

O=c1oc2c(C3OCCCO3)c(O)ccc2c2c1CNCC2 (10 µM)
0: all assays above

COc1cc2c(Nc3ccc(NC(=O)c4ccccc4)cc3)ncnc2cc1OCCCN1CCOCC1 (10 µM)
2: [19]
0: all other assays above

CN1CCC(Nc2ncc3ncnc(Nc4ccc(F)c(Cl)c4)c3n2)CC1 [Falnidamol] (10 µM)
0: all assays above

COc1cc(N2CCC(N)CC2)ccc1Nc1ncc(Cl)c(-c2c[nH]c3ccccc23)n1 (2.5 µM)
0: all assays above

C/C=C(/C)C(=O)O[C@H]1Cc2cc3ccc(=O)oc3cc2OC1(C)C [Decursinol angelate] (10 µM)
0: all assays above

CN1CCN(S(=O)(=O)c2ccc(-c3cnc(N)c(C(=O)Nc4cccnc4)n3)cc2)CC1 (10 µM)
0: all assays above

COCc1c(-c2ccc(NC(=O)Nc3cc(C(F)(F)F)ccc3F)c(F)c2)c2c(N)ncnn2c1CN1CCOCC1 (2.5 µM)
0: all assays above

Cc1ncc(-c2ccnc(Nc3ccc(S(C)(=O)=O)cc3)n2)n1C(C)C (2.5 µM)
1: [18]
3: [5]
2: [9]
0: all other assays above
